Results reported in patent US20200206344A1, “METHODS FOR MODULATING THE INTERACTION BETWEEN EWS-FLI1 AND BAF COMPLEXES” (Dana-Farber Cancer Institute, Inc., priority 2017, published 2020).
For at least one compound, name, drawing or mass did not settle the structure.

What was measured:
[1] = tested on: EWSR1, EWS-FLI1 and BAF complex; test: Co-immunoprecipitation of EWSR1, EWS-FLI1 and BAF complex after G1 arrest; format: cell-based; conditions: A673 cells, palbociclib 1.5 uM for 24 hours
[2] = tested on: SMARCA2/4 occupancy at GGAA repeat enhancers; test: ChIP-qPCR of SMARCA2/4 occupancy at GGAA repeat enhancers after G1 arrest; format: cell-based; conditions: A673 cells, palbociclib 1.5 uM for 24 hours

CC(=O)c1c(C)c2cnc(Nc3ccc(N4CCNCC4)cn3)nc2n(C2CCCC2)c1=O [palbociclib, Palbociclib] was tested, and the “interactions between EWSR1, EWS-FLI1 and BAF complex” value [1] was “maintained interactions” and the “occupancy of SMARCA2/4 at GGAA repeat enhancers” value [2] was “maintained occupancy”.
